# Results reported in article PMC9299836 (eLife, 2022).
# By UniProt entry, the sequences of proteins in these tests, tags left out. Residues count along the entry.
# UniProt Q14BI2, 19-872 A548F: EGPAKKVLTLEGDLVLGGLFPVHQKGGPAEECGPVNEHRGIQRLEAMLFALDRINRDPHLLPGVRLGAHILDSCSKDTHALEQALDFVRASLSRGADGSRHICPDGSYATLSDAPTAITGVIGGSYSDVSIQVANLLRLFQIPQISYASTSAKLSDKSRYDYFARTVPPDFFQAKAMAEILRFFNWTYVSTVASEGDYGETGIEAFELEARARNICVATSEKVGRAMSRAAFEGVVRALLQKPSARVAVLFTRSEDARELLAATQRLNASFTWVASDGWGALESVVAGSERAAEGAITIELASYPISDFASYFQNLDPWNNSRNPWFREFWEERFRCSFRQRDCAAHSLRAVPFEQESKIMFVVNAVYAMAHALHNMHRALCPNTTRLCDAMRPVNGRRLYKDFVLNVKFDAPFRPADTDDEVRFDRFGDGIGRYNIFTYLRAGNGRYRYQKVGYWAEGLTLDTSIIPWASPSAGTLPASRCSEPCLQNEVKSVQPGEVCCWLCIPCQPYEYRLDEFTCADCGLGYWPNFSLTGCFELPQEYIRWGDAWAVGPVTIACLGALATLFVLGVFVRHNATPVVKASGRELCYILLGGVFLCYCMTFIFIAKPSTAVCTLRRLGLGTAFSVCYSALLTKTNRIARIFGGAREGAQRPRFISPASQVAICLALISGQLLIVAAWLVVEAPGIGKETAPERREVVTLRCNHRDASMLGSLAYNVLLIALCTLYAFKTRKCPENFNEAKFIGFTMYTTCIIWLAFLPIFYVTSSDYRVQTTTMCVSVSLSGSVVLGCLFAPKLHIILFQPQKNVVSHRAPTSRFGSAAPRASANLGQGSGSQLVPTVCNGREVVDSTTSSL
# This continues a long series; more values of the same kind are listed elsewhere.
# Biological target: mGluR2 (Mus musculus, UniProt Q14BI2, A548F)
# Test: smFRET of azi-CRD: cross-correlation of donor and acceptor intensities (CRD dynamics) and HMM transition density plots;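 also: single detergent-solubilized receptors captured on antibody-coated flow cells via C-terminal FLAG-tag, imaged by smFRET, donor and acceptor intensity traces from three independent biological replicates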
substance,measurement,setting,value
MNI-137,"Cross Correlation, Mean","15μM Glutamate + 5μM MNI-137, Time 2.4 s",-0.01317
same,"Cross Correlation, Mean","15μM Glutamate + 5μM MNI-137, Time 2.45 s",-0.00987
same,"Cross Correlation, Mean","15μM Glutamate + 5μM MNI-137, Time 2.5 s",-0.00544
same,"Cross Correlation, Mean","15μM Glutamate + 5μM MNI-137, Time 2.55 s",-0.00743
same,"Cross Correlation, Mean","15μM Glutamate + 5μM MNI-137, Time 2.6 s",-0.0157
same,"Cross Correlation, Mean","15μM Glutamate + 5μM MNI-137, Time 2.65 s",-0.00683
same,"Cross Correlation, Mean","15μM Glutamate + 5μM MNI-137, Time 2.7 s",-0.00769
same,"Cross Correlation, Mean","15μM Glutamate + 5μM MNI-137, Time 2.75 s",-0.00781
same,"Cross Correlation, Mean","15μM Glutamate + 5μM MNI-137, Time 2.8 s",-0.00893
same,"Cross Correlation, Mean","15μM Glutamate + 5μM MNI-137, Time 2.85 s",-0.00721
same,"Cross Correlation, Mean","15μM Glutamate + 5μM MNI-137, Time 2.9 s",-0.00734
same,"Cross Correlation, Mean","15μM Glutamate + 5μM MNI-137, Time 2.95 s",-0.00772
same,"Cross Correlation, Mean","1000μM Glutamate + 5μM MNI-137, Time 0 s",-0.4674
same,"Cross Correlation, Mean","1000μM Glutamate + 5μM MNI-137, Time 0.05 s",-0.3312
same,"Cross Correlation, Mean","1000μM Glutamate + 5μM MNI-137, Time 0.1 s",-0.2718
same,"Cross Correlation, Mean","1000μM Glutamate + 5μM MNI-137, Time 0.15 s",-0.2373
same,"Cross Correlation, Mean","1000μM Glutamate + 5μM MNI-137, Time 2 s",-0.02857
same,"Cross Correlation, Mean","1000μM Glutamate + 5μM MNI-137, Time 2.05 s",-0.02736
same,"Cross Correlation, Mean","1000μM Glutamate + 5μM MNI-137, Time 2.1 s",-0.02787
same,"Cross Correlation, Mean","1000μM Glutamate + 5μM MNI-137, Time 2.15 s",-0.02259
same,"Cross Correlation, Mean","1000μM Glutamate + 5μM MNI-137, Time 2.2 s",-0.01832
same,"Cross Correlation, Mean","1000μM Glutamate + 5μM MNI-137, Time 2.25 s",-0.01961
same,"Cross Correlation, Mean","1000μM Glutamate + 5μM MNI-137, Time 2.3 s",-0.02074
same,"Cross Correlation, Mean","1000μM Glutamate + 5μM MNI-137, Time 2.35 s",-0.0172
same,"Cross Correlation, Mean","1000μM Glutamate + 5μM MNI-137, Time 2.4 s",-0.0214
same,"Cross Correlation, Mean","1000μM Glutamate + 5μM MNI-137, Time 2.45 s",-0.01763
same,"Cross Correlation, Mean","1000μM Glutamate + 5μM MNI-137, Time 2.5 s",-0.0144
same,"Cross Correlation, Mean","1000μM Glutamate + 5μM MNI-137, Time 2.55 s",-0.01537
same,"Cross Correlation, Mean","1000μM Glutamate + 5μM MNI-137, Time 2.6 s",-0.01422
same,"Cross Correlation, Mean","1000μM Glutamate + 5μM MNI-137, Time 2.65 s",-0.01258
same,"Cross Correlation, Mean","1000μM Glutamate + 5μM MNI-137, Time 2.7 s",-0.0096
same,"Cross Correlation, Mean","1000μM Glutamate + 5μM MNI-137, Time 2.75 s",-0.00827
same,"Cross Correlation, Mean","1000μM Glutamate + 5μM MNI-137, Time 2.8 s",-0.00658
same,"Cross Correlation, Mean","1000μM Glutamate + 5μM MNI-137, Time 2.85 s",-0.00289
same,"Cross Correlation, Mean","1000μM Glutamate + 5μM MNI-137, Time 2.9 s",-0.00244
same,"Cross Correlation, Mean","1000μM Glutamate + 5μM MNI-137, Time 2.95 s",-0.0049
same,"Cross Correlation, Mean","Time 0 s, 1000μM Glutamate + 5μM MNI-137, N=3",-0.4674
same,"Cross Correlation, Mean","Time 0.05 s, 1000μM Glutamate + 5μM MNI-137, N=3",-0.3312
same,"Cross Correlation, Mean","Time 0.1 s, 1000μM Glutamate + 5μM MNI-137, N=3",-0.2718
same,"Cross Correlation, Mean","Time 0.15 s, 1000μM Glutamate + 5μM MNI-137, N=3",-0.2373
same,"Cross Correlation, Mean","Time 0.2 s, 1000μM Glutamate + 5μM MNI-137, N=3",-0.2112
same,"Cross Correlation, Mean","Time 0.25 s, 1000μM Glutamate + 5μM MNI-137, N=3",-0.1919
same,"Cross Correlation, Mean","Time 0.3 s, 1000μM Glutamate + 5μM MNI-137, N=3",-0.1758
same,"Cross Correlation, Mean","Time 0.35 s, 1000μM Glutamate + 5μM MNI-137, N=3",-0.1629
same,"Cross Correlation, Mean","Time 0.4 s, 1000μM Glutamate + 5μM MNI-137, N=3",-0.1514
same,"Cross Correlation, Mean","Time 0.45 s, 1000μM Glutamate + 5μM MNI-137, N=3",-0.1426
same,"Cross Correlation, Mean","Time 0.5 s, 1000μM Glutamate + 5μM MNI-137, N=3",-0.1307
same,"Cross Correlation, Mean","Time 0.55 s, 1000μM Glutamate + 5μM MNI-137, N=3",-0.1241
same,"Cross Correlation, Mean","Time 0.6 s, 1000μM Glutamate + 5μM MNI-137, N=3",-0.1177
same,"Cross Correlation, Mean","Time 0.65 s, 1000μM Glutamate + 5μM MNI-137, N=3",-0.1093
same,"Cross Correlation, Mean","Time 0.7 s, 1000μM Glutamate + 5μM MNI-137, N=3",-0.1013
same,"Cross Correlation, Mean","Time 0.75 s, 1000μM Glutamate + 5μM MNI-137, N=3",-0.09952
same,"Cross Correlation, Mean","Time 0.8 s, 1000μM Glutamate + 5μM MNI-137, N=3",-0.09295
same,"Cross Correlation, Mean","Time 0.85 s, 1000μM Glutamate + 5μM MNI-137, N=3",-0.08726
same,"Cross Correlation, Mean","Time 0.9 s, 1000μM Glutamate + 5μM MNI-137, N=3",-0.08538
same,"Cross Correlation, Mean","Time 0.95 s, 1000μM Glutamate + 5μM MNI-137, N=3",-0.07938
same,"Cross Correlation, Mean","Time 1 s, 1000μM Glutamate + 5μM MNI-137, N=3",-0.07503
same,"Cross Correlation, Mean","Time 1.05 s, 1000μM Glutamate + 5μM MNI-137, N=3",-0.07213
same,"Cross Correlation, Mean","Time 1.1 s, 1000μM Glutamate + 5μM MNI-137, N=3",-0.06374
same,"Cross Correlation, Mean","Time 1.15 s, 1000μM Glutamate + 5μM MNI-137, N=3",-0.06369
same,"Cross Correlation, Mean","Time 1.2 s, 1000μM Glutamate + 5μM MNI-137, N=3",-0.0627
same,"Cross Correlation, Mean","Time 1.3 s, 1000μM Glutamate + 5μM MNI-137, N=3",-0.05443
same,"Cross Correlation, Mean","Time 1.35 s, 1000μM Glutamate + 5μM MNI-137, N=3",-0.05075
same,"Cross Correlation, Mean","Time 1.4 s, 1000μM Glutamate + 5μM MNI-137, N=3",-0.05008
same,"Cross Correlation, Mean","Time 1.45 s, 1000μM Glutamate + 5μM MNI-137, N=3",-0.0474
same,"Cross Correlation, Mean","Time 1.5 s, 1000μM Glutamate + 5μM MNI-137, N=3",-0.04472
same,"Cross Correlation, Mean","Time 1.55 s, 1000μM Glutamate + 5μM MNI-137, N=3",-0.04463
same,"Cross Correlation, Mean","Time 1.65 s, 1000μM Glutamate + 5μM MNI-137, N=3",-0.03966
same,"Cross Correlation, Mean","Time 1.7 s, 1000μM Glutamate + 5μM MNI-137, N=3",-0.03894
same,"Cross Correlation, Mean","Time 1.75 s, 1000μM Glutamate + 5μM MNI-137, N=3",-0.03942
same,"Cross Correlation, Mean","Time 1.8 s, 1000μM Glutamate + 5μM MNI-137, N=3",-0.03907
same,"Cross Correlation, Mean","Time 1.9 s, 1000μM Glutamate + 5μM MNI-137, N=3",-0.0321
same,"Cross Correlation, Mean","Time 1.95 s, 1000μM Glutamate + 5μM MNI-137, N=3",-0.034
same,"Cross Correlation, Mean","Time 2 s, 1000μM Glutamate + 5μM MNI-137, N=3",-0.02857
same,"Cross Correlation, Mean","Time 2.05 s, 1000μM Glutamate + 5μM MNI-137, N=3",-0.02736
same,"Cross Correlation, Mean","Time 2.1 s, 1000μM Glutamate + 5μM MNI-137, N=3",-0.02787
same,"Cross Correlation, Mean","Time 2.15 s, 1000μM Glutamate + 5μM MNI-137, N=3",-0.02259
same,"Cross Correlation, Mean","Time 2.2 s, 1000μM Glutamate + 5μM MNI-137, N=3",-0.01832
same,"Cross Correlation, Mean","Time 2.25 s, 1000μM Glutamate + 5μM MNI-137, N=3",-0.01961
same,"Cross Correlation, Mean","Time 2.3 s, 1000μM Glutamate + 5μM MNI-137, N=3",-0.02074
same,"Cross Correlation, Mean","Time 2.35 s, 1000μM Glutamate + 5μM MNI-137, N=3",-0.0172
same,"Cross Correlation, Mean","Time 2.4 s, 1000μM Glutamate + 5μM MNI-137, N=3",-0.0214
same,"Cross Correlation, Mean","Time 2.45 s, 1000μM Glutamate + 5μM MNI-137, N=3",-0.01763
same,"Cross Correlation, Mean","Time 2.5 s, 1000μM Glutamate + 5μM MNI-137, N=3",-0.0144
same,"Cross Correlation, Mean","Time 2.55 s, 1000μM Glutamate + 5μM MNI-137, N=3",-0.01537
same,"Cross Correlation, Mean","Time 2.6 s, 1000μM Glutamate + 5μM MNI-137, N=3",-0.01422
same,"Cross Correlation, Mean","Time 2.65 s, 1000μM Glutamate + 5μM MNI-137, N=3",-0.01258
same,"Cross Correlation, Mean","Time 2.7 s, 1000μM Glutamate + 5μM MNI-137, N=3",-0.0096
same,"Cross Correlation, Mean","Time 2.75 s, 1000μM Glutamate + 5μM MNI-137, N=3",-0.00827
same,"Cross Correlation, Mean","Time 2.8 s, 1000μM Glutamate + 5μM MNI-137, N=3",-0.00658
same,"Cross Correlation, Mean","Time 2.85 s, 1000μM Glutamate + 5μM MNI-137, N=3",-0.00289
same,"Cross Correlation, Mean","Time 2.9 s, 1000μM Glutamate + 5μM MNI-137, N=3",-0.00244
same,"Cross Correlation, Mean","Time 2.95 s, 1000μM Glutamate + 5μM MNI-137, N=3",-0.0049
